Reference: US20090175796A1

B1: Ha5-1(5)1 (antibody, V domains shown)
VH: QVQLVESGGGVVQPGRSLRLSCGASGFTFSSYGMHWVRQAPGKGLEWVAVMSYDGSKKYYTDSVKGRFTISRDNSKNTLYLQMNSLRVEDTAVYYCARDGGDYVRYYYYGMDVWGQGTTVTVSS
VL: DIQMTQSPSSLSASVGDRVTITCRARQGITYHLAWYQQRPGKVPKLLIYDTSSLQSGVPSRFSGSGSGTDFTLTISSLQPEDVATYYCQRFNSAPLTFGGGTKVEIK
B2: Ha5-1(5)2.1 (antibody, V domains shown)
VH: B1 VH with G23A, Y59F, V88A, Y107H
VL: DIQMTQSPSTLSASIGDRVTITCRASQGISYYLAWYQQKPGKIPKLLIYDTSSLQSGVPSRFSGSRSGTDLSLTISSLQPEDVATYYCQRYDSAPLTFGGGTKVEIK

Biological target: cynomolgus 24P4C12 protein (cynomolgus monkey)
Assay: FACS on Rat1 cells expressing cynomolgus 24P4C12, 10 ug/ml MAb, anti-human IgG-PE; open histogram Rat1-cynomolgus 24P4C12 cells, solid histogram control neo cells

Binder | binding
B1 | binds
B2 | binds

Residue numbers refer to the chain shown, from its start. Results are given in words; binding and its absence hold for the method and conditions named. Binding can be weak; no strength is given.
